Laboratory results: PubChem BioAssay AID1508597 (Cure First, 2020)
Aim: 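Survival screen with siRNA in ovarian cancer cells derived from patients, with or without rucaparib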 (primary screen). Cell system: human ovarian carcinoma lines grown from tumours: OCI-P5x (papillary serous) and OCI-C5x (clear cell). Knock-down reagent: siRNA pool against human genes, 1.25 pmol siRNA per well. Time to read-out: 72 h or 96 h, depending on the cell culture. Challenge: rucaparib 20 µM (about IC30) or vehicle, present until read-out. Read-out: 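Luminescent ATP-based viability assay read 72 or 96 h after transfection, depending on culture, given as normalised percent viability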. Reading the numbers: viability, normalised: higher = more viable cells remaining. Active means: 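Active when normalised viability falls below 80 percent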. Calls: active = viability under 80%; inactive = viability 80% or more.
This is an unselected part of about 2,100 deposited reagents. 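Calls flag viability under 80% in either arm, not effects specific to rucaparib; the reference for percent is not stated.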 A reagent listed more than once was tested more than once; the source does not tell the runs apart. Not stated in the record: the 100% reference.

| target gene | rucaparib or vehicle | cell line | technical replicate | viability, normalised (%) | Call |
| --- | --- | --- | --- | --- | --- |
| KAT7 | Rucaparib | OCI-C5x (clear cell) | 1 | 32.5 | active |
| KAT7 | Rucaparib | OCI-C5x (clear cell) | 2 | 36.7 | active |
| KAT7 | Rucaparib | OCI-C5x (clear cell) | 3 | 36.7 | active |
| KAT7 | Rucaparib | OCI-P5x (serous) | 1 | 49.3 | active |
| KAT7 | Rucaparib | OCI-P5x (serous) | 2 | 50.3 | active |
| KAT7 | Rucaparib | OCI-P5x (serous) | 3 | 51 | active |
| KAT7 | Vehicle | OCI-C5x (clear cell) | 1 | 48.3 | active |
| KAT7 | Vehicle | OCI-C5x (clear cell) | 2 | 46.6 | active |
| KAT7 | Vehicle | OCI-C5x (clear cell) | 3 | 29.7 | active |
| KAT7 | Vehicle | OCI-P5x (serous) | 1 | 55 | active |
| KAT7 | Vehicle | OCI-P5x (serous) | 2 | 54.4 | active |
| KAT7 | Vehicle | OCI-P5x (serous) | 3 | 97.4 | inactive |
| CYLD | Rucaparib | OCI-C5x (clear cell) | 1 | 52.9 | active |
| CYLD | Rucaparib | OCI-C5x (clear cell) | 2 | 44.1 | active |
| CYLD | Rucaparib | OCI-C5x (clear cell) | 3 | 39.4 | active |
| CYLD | Rucaparib | OCI-P5x (serous) | 1 | 67.7 | active |
| CYLD | Rucaparib | OCI-P5x (serous) | 2 | 86.2 | inactive |
| CYLD | Rucaparib | OCI-P5x (serous) | 3 | 66.9 | active |
| CYLD | Vehicle | OCI-C5x (clear cell) | 1 | 43.5 | active |
| CYLD | Vehicle | OCI-C5x (clear cell) | 2 | 70 | active |
| CYLD | Vehicle | OCI-C5x (clear cell) | 3 | 54.6 | active |
| CYLD | Vehicle | OCI-P5x (serous) | 1 | 68.7 | active |
| CYLD | Vehicle | OCI-P5x (serous) | 2 | 81.3 | inactive |
| CYLD | Vehicle | OCI-P5x (serous) | 3 | 77.9 | active |
| PLCD1 | Rucaparib | OCI-C5x (clear cell) | 1 | 56.1 | active |
| PLCD1 | Rucaparib | OCI-C5x (clear cell) | 2 | 48.1 | active |
| PLCD1 | Rucaparib | OCI-C5x (clear cell) | 3 | 37.5 | active |
| PLCD1 | Rucaparib | OCI-P5x (serous) | 1 | 55 | active |
| PLCD1 | Rucaparib | OCI-P5x (serous) | 2 | 53.1 | active |
| PLCD1 | Rucaparib | OCI-P5x (serous) | 3 | 56.7 | active |
| PLCD1 | Vehicle | OCI-C5x (clear cell) | 1 | 45 | active |
| PLCD1 | Vehicle | OCI-C5x (clear cell) | 2 | 41.9 | active |
| PLCD1 | Vehicle | OCI-C5x (clear cell) | 3 | 37.6 | active |
| PLCD1 | Vehicle | OCI-P5x (serous) | 1 | 70.7 | active |
| PLCD1 | Vehicle | OCI-P5x (serous) | 2 | 80 | inactive |
| PLCD1 | Vehicle | OCI-P5x (serous) | 3 | 66.7 | active |
| MSH2 | Rucaparib | OCI-C5x (clear cell) | 1 | 37.5 | active |
| MSH2 | Rucaparib | OCI-C5x (clear cell) | 1 | 50 | active |
| MSH2 | Rucaparib | OCI-C5x (clear cell) | 2 | 47.5 | active |
| MSH2 | Rucaparib | OCI-C5x (clear cell) | 2 | 39.6 | active |
| MSH2 | Rucaparib | OCI-C5x (clear cell) | 3 | 43.3 | active |
| MSH2 | Rucaparib | OCI-C5x (clear cell) | 3 | 47.8 | active |
| MSH2 | Rucaparib | OCI-P5x (serous) | 1 | 50.9 | active |
| MSH2 | Rucaparib | OCI-P5x (serous) | 1 | 73.6 | active |
| MSH2 | Rucaparib | OCI-P5x (serous) | 2 | 49.8 | active |
| MSH2 | Rucaparib | OCI-P5x (serous) | 2 | 69.2 | active |
| MSH2 | Rucaparib | OCI-P5x (serous) | 3 | 63.9 | active |
| MSH2 | Rucaparib | OCI-P5x (serous) | 3 | 73.5 | active |
| MSH2 | Vehicle | OCI-C5x (clear cell) | 1 | 33.7 | active |
| MSH2 | Vehicle | OCI-C5x (clear cell) | 1 | 66.8 | active |
| MSH2 | Vehicle | OCI-C5x (clear cell) | 2 | 74.8 | active |
| MSH2 | Vehicle | OCI-C5x (clear cell) | 2 | 32.6 | active |
| MSH2 | Vehicle | OCI-C5x (clear cell) | 3 | 73.7 | active |
| MSH2 | Vehicle | OCI-C5x (clear cell) | 3 | 27.8 | active |
| MSH2 | Vehicle | OCI-P5x (serous) | 1 | 81.9 | inactive |
| MSH2 | Vehicle | OCI-P5x (serous) | 1 | 54.1 | active |
| MSH2 | Vehicle | OCI-P5x (serous) | 2 | 68.6 | active |
| MSH2 | Vehicle | OCI-P5x (serous) | 2 | 69.6 | active |
| MSH2 | Vehicle | OCI-P5x (serous) | 3 | 74.5 | active |
| MSH2 | Vehicle | OCI-P5x (serous) | 3 | 51 | active |
| MLLT6 | Rucaparib | OCI-C5x (clear cell) | 1 | 46.1 | active |
| MLLT6 | Rucaparib | OCI-C5x (clear cell) | 2 | 38.8 | active |
| MLLT6 | Rucaparib | OCI-C5x (clear cell) | 3 | 47.4 | active |
| MLLT6 | Rucaparib | OCI-P5x (serous) | 1 | 60.6 | active |
| MLLT6 | Rucaparib | OCI-P5x (serous) | 2 | 61.5 | active |
| MLLT6 | Rucaparib | OCI-P5x (serous) | 3 | 56.7 | active |
| MLLT6 | Vehicle | OCI-C5x (clear cell) | 1 | 59.2 | active |
| MLLT6 | Vehicle | OCI-C5x (clear cell) | 2 | 55.1 | active |
| MLLT6 | Vehicle | OCI-C5x (clear cell) | 3 | 50.4 | active |
| MLLT6 | Vehicle | OCI-P5x (serous) | 1 | 70.9 | active |
| MLLT6 | Vehicle | OCI-P5x (serous) | 2 | 74 | active |
| MLLT6 | Vehicle | OCI-P5x (serous) | 3 | 83.5 | inactive |
| CARD14 | Rucaparib | OCI-C5x (clear cell) | 1 | 48.3 | active |
| CARD14 | Rucaparib | OCI-C5x (clear cell) | 2 | 33.6 | active |
| CARD14 | Rucaparib | OCI-C5x (clear cell) | 3 | 72.8 | active |
| CARD14 | Rucaparib | OCI-P5x (serous) | 1 | 64 | active |
| CARD14 | Rucaparib | OCI-P5x (serous) | 2 | 104 | inactive |
| CARD14 | Rucaparib | OCI-P5x (serous) | 3 | 71.9 | active |
| CARD14 | Vehicle | OCI-C5x (clear cell) | 1 | 47.5 | active |
| CARD14 | Vehicle | OCI-C5x (clear cell) | 2 | 45 | active |
| CARD14 | Vehicle | OCI-C5x (clear cell) | 3 | 34.8 | active |
| CARD14 | Vehicle | OCI-P5x (serous) | 1 | 85.3 | inactive |
| CARD14 | Vehicle | OCI-P5x (serous) | 2 | 82.8 | inactive |
| CARD14 | Vehicle | OCI-P5x (serous) | 3 | 60.3 | active |

In a second layout: results already given
PLCD1, rucaparib or vehicle Rucaparib, cell line OCI-P5x (serous), technical replicate 3: viability, normalised (%) = 56.7; Call = active
PLCD1, rucaparib or vehicle Vehicle, cell line OCI-C5x (clear cell), technical replicate 1: viability, normalised (%) = 45; Call = active
PLCD1, rucaparib or vehicle Vehicle, cell line OCI-C5x (clear cell), technical replicate 2: viability, normalised (%) = 41.9; Call = active
PLCD1, rucaparib or vehicle Vehicle, cell line OCI-C5x (clear cell), technical replicate 3: viability, normalised (%) = 37.6; Call = active
PLCD1, rucaparib or vehicle Vehicle, cell line OCI-P5x (serous), technical replicate 1: viability, normalised (%) = 70.7; Call = active
